The structures appear in SMILES notation. The whole screen tested about 1,200 compounds, of which fewer than 10 were called active. Calls come from the whole dose curve; as a rule, active = well fitted curve in the direction sought with a large enough effect; inconclusive = small, poorly fitted or top-dose-only effect, or another doubt; inactive = no such curve, though single readings can be large or run the other way. The list shows a part of the results.

This assay is described as follows: Confirmatory qHTS assay for inhibitors of Activation Induced Cytidine Deaminase (AID): UDG signals. Note: 0% is about no effect. To be noted: UDG coupled enzyme activity counter-screen; at 115 µM (top of the series). The text has this:
Assay Provider (PI) Patricia Gearhart Ph.D.
National Institute on Aging
National Institute of Health (NIH), Bethesda, MD
Assay Provider (PI) Rahul Kohli Ph.D.
Perelman School of Medicine
University of Pennsylvania, Philadelphia, PA
Activation-Induced Deaminase (AID) is a cytosine deaminase which converts cytosine into uracil within stretches of ssDNA. The presence of uracil in DNA initiates a cascade of mutagenic DNA repair to introduce point mutations and DNA double strand breaks. Specific targeting of AID to the immunoglobulin heavy chain loci (Igh) promotes mutagenesis in the antibody variable region for somatic hypermutation (SHM) or switch regions leading to class switch recombination (CSR). However, AID also plays a role in accumulating unnecessary mutations across the genome. Mis-targeting of AID results in the initiation of tumor development and leads to greater drug resistance among cancer cells when continually expressed. To identify an AID inhibitor, a small molecule library will be screened in collaboration with NCATS core facility at NIH. To confirm biological function, inhibitors will be examined in an in vitro murine B-cell activation assay and subsequent secondary validation screens. Top molecules will be further screened to identify inhibitory efficacy against a wild type primary splenocytes assay. Using these approaches, we hope to identify a small molecule with great efficacy and low toxicity for use as a molecular probe to further characterize AID's intricacies, or even as a therapeutic.
A FRET based analysis of cytosine deamination, was developed to identify potential inhibitors of AID catalytic activity. This screen has two signal output, Read 1 evaluates the AID inhibition response. The second readout (Read 2) evaluates UDG response and is uses as a counterscreen to exclude false positive inhibitors. Inhibition in AID and inactivity in the UDG signal is the desired outcome for this assay.
SEQUENCE No. (e.g., 1, 2, 3, etc.); […] (e.g., Cells, Incubation, Reagent, etc.); VALUE; DESCRIPTION
1a; Reagent; 3 uL; [4/3x] 1 uM AID/2.67 U/mL UDG
1b; Reagent; 3 uL; 2 U/mL UDG
1c; Reagent; 3 uL; 1 uM AID
2a; Compound; 46 nL; Follow-up plates (0.64 uM - 10 mM)
2b; Control; 46 nL; ATA ([…] - 10 mM)
3; Time; 10 min; incubation at room temperature
5; Time; 4 hr; incubation at room temperature
6; Reagent; 4 uL; [2x] 250 mM NaOH
7; Time; 15 sec; centrifuge at 1000 rpm
8; Time; 30 min; incubation at room temperature
9a; Detection; fluorescence (Read 1: AID); EnVision (PerkinElmer) plate reader, 540 excitation and 590 emission filters
9b; Detection; fluorescence (Read 2: UDG); EnVision (PerkinElmer) plate reader, 560 excitation and 665 emission filters
NOTES (numbers refer to sequence above)
1a; Reagents were dispensed in a medium-binding black solid-bottom Greiner plates (789176F) using a BioRptr liquid dispenser. Dispense 3 uL of [4/3x] 1 uM AID (provided by Kohli lab) and [4/3x] 2 U/mL UDG (NEB M0280L) into columns 1, 2, 5 to 48.
1b; Dispense 3 uL of [4/3x] 2 U/mL UDG into column 3.
1c; Dispense 3 uL of [4/3x] 1 uM AID into column 4.
2a; Compound (7-points [uM]: 0.64; 3.2; 16; 80; 400; 2,000; 10,000; […]) double pin-transferred (Dip Factor = 2) using the Kalypsys (Wako USA) pintool equipped with a 1536 pinhead for a final concentration range of 7.32 nM - 114 uM.
2b; 10 mM Aurintricarboxylic Acid (Sigma A1895) (ATA, 8-point, n = 2, 1:2.5 dilution in column 2) double pin-transferred (Dip Factor = 2) using the Kalypsys (Wako USA) pintool equipped with a 1536 pinhead for a [final] range of 186 nM - 114 uM.
3; Room temperature incubation.
4; Dispense 1 uL of substrate mixture from the Kohli lab [4x] […] DJC20 and [4x] 250 nM DJC23 into columns 1 to 48 .
5; Room temperature incubation.
6; Dispense 4 uL of substrate mixture [2x] 250 mM NaOH into columns 1 to 48.
7; Centrifugation step to remove bubbles.
8; Room temperature incubation
9a; Fluorescence signal (column label AID) was read using the EnVision plate reader. […]
In general terms: Quantitative high-throughput screening tests each substance at several concentrations.
For `Cc1cccc(CN2C(=O)CN=C(c3ccccc3)c3cc(Cl)ccc32)c1`, the activity change, negative = inhibition is inactive: -1.23%.
For the molecule `O=S1(=O)N(CCN2CC=C(c3c[nH]c4cc(F)ccc34)CC2)c2cccc3c2N1CCC3`, the activity change, negative = inhibition is inactive: 9.84%.
Regarding `Cc1ccccc1CN1C(=O)CN=C(c2ccccc2)c2cc(Cl)ccc21`, the activity change, negative = inhibition is inactive: 0.914%.
Take `Cc1c(C(c2ccc(Cl)cc2Cl)c2c(O)c3ccccc3oc2=O)c(=O)n(-c2ccccc2)n1C` (centres undefined): the activity change, negative = inhibition is inactive: 4.62%.
For `CC(=O)c1c(O)c(C)c(O)c(Cc2c(O)c3c(c(C(=O)/C=C/c4ccccc4)c2O)OC(C)(C)C=C3)c1O`, the activity change, negative = inhibition was inactive: -5.22%.
As to `Cc1cccc(-c2nc(CN3C(=O)CN=C(c4ccccc4)c4ccccc43)c(C)o2)c1`, the activity change, negative = inhibition was inactive: -4.83%.
As for `CCCCC/C=C\C/C=C\C/C=C\C/C=C\CCCC(=O)NCC(=O)O`, the activity change, negative = inhibition is inactive: 3.6%.
As for `O=C(Nc1cc(C(F)(F)F)cc(C(F)(F)F)c1)c1cccn(Cc2ccccc2Cl)c1=O`, the activity change, negative = inhibition is inactive: -5.52%.
Consider `CN1CC[C@@]2(C)c3cc(O)ccc3N(C)C12` (some centres undefined), for which the activity change, negative = inhibition was inactive: -4.53%.
Turning to `O=C(c1ccc2c(c1)N(Cc1ccc(F)cc1)C(=O)c1ccccc1S2)N1CCC2(CC1)OCCO2`, the activity change, negative = inhibition was inactive: -0.573%.
In the case of `COc1ccc2c(c[n+](C)c3c4cc5c(cc4ccc23)OCO5)c1OC`, the activity change, negative = inhibition was inactive: -23.3%.
As to `Cc1ccccc1CN1C(=O)C(C)N=C(c2ccccc2)c2ccccc21` (centres undefined), the activity change, negative = inhibition is inactive: -4.34%.
In the case of `CCCC1=Nc2cc(C(=O)NCCCN(CC)CC)ccc2Sc2ccccc21`, the activity change, negative = inhibition was inactive: 0.887%.
As to `CN(N=O)c1cc(O)ccc1O`, the activity change, negative = inhibition was inactive: -4.44%.
As for `NC(Cc1cc(O)c(O)cc1O)C(=O)O` (centres undefined), the activity change, negative = inhibition is inactive: 3.19%.
Take `CN(N=O)c1ccc(O)c(O)c1`: the activity change, negative = inhibition is inactive: -8.61%.
On to `COc1cc(C(c2c(O)c3ccccc3oc2=O)c2c(C)n(C)n(-c3ccccc3)c2=O)ccc1O` (centres undefined), for which the activity change, negative = inhibition was inactive: -3.72%.
Consider `Cc1ccc(NC(=O)N(Cc2ccc3c(c2)OCO3)C2CCN(Cc3ccccc3)CC2)cc1C`, for which the activity change, negative = inhibition is inactive: -16%.
As for `NCC(O)c1cc(O)c(O)cc1F` (centres undefined), the activity change, negative = inhibition was inactive: -4.02%.

Values taken from PubChem BioAssay AID1347431 (National Center for Advancing Translational Sciences (NCATS), 2020).
